The record followed here is paper PMC11187919.

The target in this data set is alpha-synuclein (α-Syn) (UniProt P37840). The experiment in a line: fluorescence turn-on sensor (FRET, Eu-MOF@Au-Aptamer). As to conditions: aptamer on AuNP in Eu-MOF, range 0.0005-1 ng/mL, LOD 0.04 pg/mL (not a Kd); 5'-SH; on gold nanoparticles, loaded in Eu-MOF; sensor in aqueous solution, emission read at 545 nm; single-stranded DNA.

Construct, isoform or probe ends are uncertain for at least one entry. At least one verdict rests on a figure or table, not on a statement of the authors.

As for “TTTTTGGTGGCTGGAGGGGGGGCGCGAACG [α-Syn aptamer]”, the binding result is “binds”.
